Experimental data reported in publication doi:10.1101/2022.11.07.515236.
Results are given in words; binding and its absence hold for the method and conditions named. For some of these results: Where a sequence is shown, tags or fusion partners need not be part of it.

By UniProt entry, the sequences of proteins in these tests, tags left out. Residues count along the entry.
UniProt P37173, residues 23-166: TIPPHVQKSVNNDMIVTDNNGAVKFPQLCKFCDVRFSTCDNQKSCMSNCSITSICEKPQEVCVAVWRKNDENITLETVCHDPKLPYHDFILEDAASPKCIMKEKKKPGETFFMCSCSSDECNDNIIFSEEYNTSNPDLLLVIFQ

T1: recombinant human ACTRIIB-Fc (human) (UniProt Q13705)
T1 sequence: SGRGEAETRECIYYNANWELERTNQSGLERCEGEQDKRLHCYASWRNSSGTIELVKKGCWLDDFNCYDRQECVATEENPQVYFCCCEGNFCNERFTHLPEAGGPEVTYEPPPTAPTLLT


How the values were obtained:
[1] = molecular target: T1, recombinant human ACTRIIB-Fc (human); experiment: BLI
[2] = molecular target: recombinant human TGFBR2-Fc (human) (UniProt P37173); experiment: BLI
[3] = molecular target: recombinant human TGFBR2-Fc (human) (UniProt P37173); experiment: SPR

| Binder | binding [1] | binding [2] | binding [3] |
| --- | --- | --- | --- |
| recombinant mouse GDF3 (ligand, UniProt Q07104 253-366) AAISVPKGFCRNFCHRHQLFINFQDLGWHKWVIAPKGFMANYCHGECPFSMTTYLNSSNYAFMQALMHMADPKVPKAVCVPTKLSPISMLYQDSDKNVILRHYEDMVVDECGCG | no binding (tested: 50 nM) | no binding (tested: 50 nM) | – |
| recombinant human GDF3 (ligand, UniProt Q9NR23 251-364) AAIPVPKLSCKNLCHRHQLFINFRDLGWHKWIIAPKGFMANYCHGECPFSLTISLNSSNYAFMQALMHAVDPEIPQAVCIPTKLSPISMLYQDNNDNVILRHYEDMVVDECGCG | – | no binding (tested: 50 nM) | no binding (tested: 12.5 nM) |
